Measured values taken from PubChem BioAssay AID248 (DTP/NCI, 2004).
The list does not hold the whole screen: it gathers some chemical classes. Other doses and runs of a compound may be missing. T/C gives the treated animals as a percentage of the vehicle group. Where survival is the endpoint, this PubChem deposit counts one and a half times the control or more as active, and values a quarter to a half above the control carry no call in these data; other NCI protocols may use other cut-offs. Some entries show no survivor count and are marked so; the dose need not have been tolerated. Schedule codes are those of the source, read here as Q, the interval in days (D) or hours (H), X, the number of doses. Some entries were tested several times; the results are listed from low to high. Some schedule codes hold Z or #, which are not explained here. Counts like (3×) count equal records among those shown.

System: L1210 leukemia ip in BDF1 mice, survival T/C
Assay: NCI In Vivo Anticancer Drug Screen. Data for tumor model L1210 Leukemia (intraperitoneal) in B6D2F1 (BDF1) mice
Conditions: T/C endpoint: mean survival time, higher T/C = longer survival

SMILES: ClCCNCCCl
- T/C (dose: 2.5 mg/kg/injection, schedule: Q#A X034 (ip), vehicle: saline): 93 % of control [survivor count not shown]
- T/C (dose: 3.0 mg/kg/injection, schedule: Q01DX Z (ip), vehicle: saline): 94 % of control [survivor count not shown]
- T/C (dose: 5.0 mg/kg/injection, schedule: Q01DX017 (ip), vehicle: saline): 107 % of control [survivor count not shown]
- T/C (dose: 5.0 mg/kg/injection, schedule: Q01DX Z (ip), vehicle: saline): 101 % of control [survivor count not shown]
- T/C (dose: 5.0 mg/kg/injection, schedule: Q02DX009 (ip), vehicle: saline): 102 % of control [survivor count not shown]
- T/C (dose: 5.0 mg/kg/injection, schedule: Q#A X034 (ip), vehicle: saline): 100 % of control [survivor count not shown]
- T/C (dose: 5.0 mg/kg/injection, schedule: Q#A X Z (ip), vehicle: saline): 104 % of control [survivor count not shown]
- T/C (dose: 5.4 mg/kg/injection, schedule: Q03HX008 (ip), vehicle: steroid suspending solution): 105 % of control [survivor count not shown]
- T/C (dose: 7.7 mg/kg/injection, schedule: Q03HX008 (ip), vehicle: steroid suspending solution): 111 % of control [survivor count not shown]
- T/C (dose: 8.4 mg/kg/injection, schedule: Q01DX Z (ip), vehicle: saline): 112 % of control [survivor count not shown]
- T/C (dose: 10.0 mg/kg/injection, schedule: Q01DX017 (ip), vehicle: saline): 115 % of control [survivor count not shown]
- T/C (dose: 10.0 mg/kg/injection, schedule: Q01DX Z (im), vehicle: saline): 108 % of control [survivor count not shown]
- T/C (dose: 10.0 mg/kg/injection, schedule: Q01DX Z (ip), vehicle: saline): 100 % of control [survivor count not shown]
- T/C (dose: 10.0 mg/kg/injection, schedule: Q01DX Z (sc), vehicle: saline): 102 % of control [survivor count not shown]
- T/C (dose: 10.0 mg/kg/injection, schedule: Q02DX009 (ip), vehicle: saline): 103 % of control [survivor count not shown]
- T/C (dose: 10.0 mg/kg/injection, schedule: Q#A X034 (ip), vehicle: saline): 103 % of control [survivor count not shown]
- T/C (dose: 10.0 mg/kg/injection, schedule: Q#A X Z (ip), vehicle: saline): 95 % of control [survivor count not shown]
- T/C (dose: 11.1 mg/kg/injection, schedule: Q01DX001 (ip), vehicle: steroid suspending solution): 94 % of control [survivor count not shown]
- T/C (dose: 11.1 mg/kg/injection, schedule: Q03HX008 (ip), vehicle: steroid suspending solution): 122 % of control [survivor count not shown]
- T/C (dose: 12.5 mg/kg/injection, schedule: Q01DX001 (ip), vehicle: steroid suspending solution): 109 % of control [survivor count not shown]
- T/C (dose: 12.5 mg/kg/injection, schedule: Q01DX Z (ip), vehicle: carboxymethylcellulose (CMC)): 97 % of control [survivor count not shown]
- T/C (dose: 14.0 mg/kg/injection, schedule: Q01DX Z (ip), vehicle: saline): 111 % of control [survivor count not shown]
- T/C (dose: 15.8 mg/kg/injection, schedule: Q01DX001 (ip), vehicle: steroid suspending solution): 97 % of control [survivor count not shown]
- T/C (dose: 15.8 mg/kg/injection, schedule: Q03HX008 (ip), vehicle: steroid suspending solution): 136 % of control [survivor count not shown]
- T/C (dose: 18.8 mg/kg/injection, schedule: Q01DX009 (ip), vehicle: saline): 97 [survivor count not shown] and 103 % of control [survivor count not shown]
- T/C (dose: 18.8 mg/kg/injection, schedule: Q01DX010 (ip), vehicle: saline): 100 [survivor count not shown] and 103 % of control [survivor count not shown]
- T/C (dose: 20.0 mg/kg/injection, schedule: Q01DX017 (ip), vehicle: saline): 111 % of control [survivor count not shown]
- T/C (dose: 20.0 mg/kg/injection, schedule: Q01DX Z (im), vehicle: saline): 96 % of control [survivor count not shown]
- T/C (dose: 20.0 mg/kg/injection, schedule: Q01DX Z (ip), vehicle: saline): 103 % of control [survivor count not shown]
- T/C (dose: 20.0 mg/kg/injection, schedule: Q01DX Z (sc), vehicle: saline): 103 % of control [survivor count not shown]
- T/C (dose: 20.0 mg/kg/injection, schedule: Q02DX009 (ip), vehicle: saline): 111 % of control [survivor count not shown]
- T/C (dose: 20.0 mg/kg/injection, schedule: Q#A X034 (ip), vehicle: saline): 117 % of control [survivor count not shown]
- T/C (dose: 20.0 mg/kg/injection, schedule: Q#A X Z (ip), vehicle: saline): 91 % of control [survivor count not shown]
- T/C (dose: 22.6 mg/kg/injection, schedule: Q01DX001 (ip), vehicle: steroid suspending solution): 100 % of control [survivor count not shown]
- T/C (dose: 22.6 mg/kg/injection, schedule: Q03HX008 (ip), vehicle: steroid suspending solution): 96 % of control [survivor count not shown]
- T/C (dose: 23.0 mg/kg/injection, schedule: Q01DX Z (ip), vehicle: saline): 116 % of control [survivor count not shown]
- T/C (dose: 25.0 mg/kg/injection, schedule: Q01DX001 (ip), vehicle: steroid suspending solution): 113 % of control [survivor count not shown]
- T/C (dose: 25.0 mg/kg/injection, schedule: Q01DX Z (ip), vehicle: carboxymethylcellulose (CMC)): 95 % of control [survivor count not shown]
- T/C (dose: 25.0 mg/kg/injection, schedule: Q03HX008 (ip), vehicle: steroid suspending solution): 113 % of control [survivor count not shown]
- T/C (dose: 32.3 mg/kg/injection, schedule: Q01DX001 (ip), vehicle: steroid suspending solution): 116 % of control [survivor count not shown]
- T/C (dose: 37.5 mg/kg/injection, schedule: Q01DX001 (ip), vehicle: saline): 107 % of control [survivor count not shown]
- T/C (dose: 37.5 mg/kg/injection, schedule: Q01DX009 (ip), vehicle: saline): 125 [survivor count not shown] and 133 % of control [survivor count not shown]
- T/C (dose: 37.5 mg/kg/injection, schedule: Q01DX010 (ip), vehicle: saline): 123 [survivor count not shown] and 135 % of control [survivor count not shown]
- T/C (dose: 40.0 mg/kg/injection, schedule: Q01DX017 (ip), vehicle: saline): 145 % of control [survivor count not shown]
- T/C (dose: 40.0 mg/kg/injection, schedule: Q01DX Z (im), vehicle: saline): 94 % of control [survivor count not shown]
- T/C (dose: 40.0 mg/kg/injection, schedule: Q01DX Z (ip), vehicle: saline): 97 % of control [survivor count not shown]
- T/C (dose: 40.0 mg/kg/injection, schedule: Q01DX Z (sc), vehicle: saline): 102 % of control [survivor count not shown]
- T/C (dose: 40.0 mg/kg/injection, schedule: Q02DX009 (ip), vehicle: saline): 123 % of control [survivor count not shown]
- T/C (dose: 40.0 mg/kg/injection, schedule: Q#A X034 (ip), vehicle: saline): 123 % of control [survivor count not shown]
- T/C (dose: 40.0 mg/kg/injection, schedule: Q#A X Z (ip), vehicle: saline): 98 [survivor count not shown] and 111 % of control [survivor count not shown]
- T/C (dose: 46.1 mg/kg/injection, schedule: Q01DX001 (ip), vehicle: steroid suspending solution): 119 % of control [survivor count not shown]
- T/C (dose: 50.0 mg/kg/injection, schedule: Q01DX001 (ip), vehicle: steroid suspending solution): 125 % of control [survivor count not shown]
- T/C (dose: 50.0 mg/kg/injection, schedule: Q01DX Z (ip), vehicle: carboxymethylcellulose (CMC)): 137 % of control [survivor count not shown]
- T/C (dose: 50.0 mg/kg/injection, schedule: Q01DX Z (oral), vehicle: saline): 103 % of control [survivor count not shown]
- T/C (dose: 50.0 mg/kg/injection, schedule: Q03HX008 (ip), vehicle: steroid suspending solution): 113 % of control [survivor count not shown]
- T/C (dose: 60.0 mg/kg/injection, schedule: Q03DX Z (ip), vehicle: saline): 97 % of control [survivor count not shown]
- T/C (dose: 60.0 mg/kg/injection, schedule: Q#A X Z (ip), vehicle: saline): 109 % of control [survivor count not shown]
- T/C (dose: 65.9 mg/kg/injection, schedule: Q01DX001 (ip), vehicle: steroid suspending solution): 139 % of control [survivor count not shown]
- T/C (dose: 75.0 mg/kg/injection, schedule: Q01DX001 (ip), vehicle: saline): 127 [survivor count not shown] and 136 % of control [survivor count not shown]
- T/C (dose: 75.0 mg/kg/injection, schedule: Q01DX009 (ip), vehicle: saline): 105 [survivor count not shown] and 117 % of control [survivor count not shown]
- T/C (dose: 75.0 mg/kg/injection, schedule: Q01DX010 (ip), vehicle: saline): 106 [survivor count not shown] and 140 % of control [survivor count not shown]
- T/C (dose: 80.0 mg/kg/injection, schedule: Q01DX017 (ip), vehicle: saline): 142 % of control [survivor count not shown]
- T/C (dose: 80.0 mg/kg/injection, schedule: Q01DX Z (im), vehicle: saline): 97 % of control [survivor count not shown]
- T/C (dose: 80.0 mg/kg/injection, schedule: Q01DX Z (ip), vehicle: saline): 102 % of control [survivor count not shown]
- T/C (dose: 80.0 mg/kg/injection, schedule: Q01DX Z (sc), vehicle: saline): 103 % of control [survivor count not shown]
- T/C (dose: 80.0 mg/kg/injection, schedule: Q02DX009 (ip), vehicle: saline): 179 % of control [survivor count not shown]
- T/C (dose: 80.0 mg/kg/injection, schedule: Q#A X Z (ip), vehicle: saline): 91 % of control [survivor count not shown]
- T/C (dose: 90.0 mg/kg/injection, schedule: Q#A X Z (ip), vehicle: saline): 117 % of control [survivor count not shown]
- T/C (dose: 94.2 mg/kg/injection, schedule: Q01DX001 (ip), vehicle: steroid suspending solution): 135 % of control [survivor count not shown]
- T/C (dose: 100.0 mg/kg/injection, schedule: Q01DX Z (ip), vehicle: carboxymethylcellulose (CMC)): 134 % of control [survivor count not shown]
- T/C (dose: 100.0 mg/kg/injection, schedule: Q01DX Z (oral), vehicle: saline): 102 % of control [survivor count not shown]
- T/C (dose: 100.0 mg/kg/injection, schedule: Q03HX008 (ip), vehicle: steroid suspending solution): 110 % of control [survivor count not shown]
- T/C (dose: 120.0 mg/kg/injection, schedule: Q03DX Z (ip), vehicle: saline): 97 % of control [survivor count not shown]
- T/C (dose: 125.0 mg/kg/injection, schedule: Q01DX001 (ip), vehicle: saline): 94 [survivor count not shown] and 101 % of control [survivor count not shown]
- T/C (dose: 125.0 mg/kg/injection, schedule: Q07DX Z (ip), vehicle: saline): 100 % of control [survivor count not shown]
- T/C (dose: 125.0 mg/kg/injection, schedule: Q#A X Z (ip), vehicle: saline): 100 % of control [survivor count not shown]
- T/C (dose: 150.0 mg/kg/injection, schedule: Q01DX001 (ip), vehicle: saline): 106 % of control [survivor count not shown]
- T/C (dose: 150.0 mg/kg/injection, schedule: Q01DX009 (ip), vehicle: saline): 87 % of control [survivor count not shown]
- T/C (dose: 160.0 mg/kg/injection, schedule: Q01DX Z (im), vehicle: saline): 89 % of control [survivor count not shown] (2×)
- T/C (dose: 160.0 mg/kg/injection, schedule: Q01DX Z (ip), vehicle: saline): 97 [survivor count not shown] and 100 % of control [survivor count not shown]
- T/C (dose: 160.0 mg/kg/injection, schedule: Q01DX Z (sc), vehicle: saline): 94 [survivor count not shown] and 95 % of control [survivor count not shown]
- T/C (dose: 160.0 mg/kg/injection, schedule: Q02DX009 (ip), vehicle: saline): 101 % of control [survivor count not shown]
- T/C (dose: 200.0 mg/kg/injection, schedule: Q01DX Z (oral), vehicle: saline): 108 % of control [survivor count not shown]
- T/C (dose: 240.0 mg/kg/injection, schedule: Q01DX Z (im), vehicle: saline): 94 % of control [survivor count not shown]
- T/C (dose: 240.0 mg/kg/injection, schedule: Q01DX Z (sc), vehicle: saline): 89 % of control [survivor count not shown]
- T/C (dose: 250.0 mg/kg/injection, schedule: Q01DX001 (ip), vehicle: saline): 102 [survivor count not shown] and 103 % of control [survivor count not shown]
- T/C (dose: 250.0 mg/kg/injection, schedule: Q07DX Z (ip), vehicle: saline): 89 % of control [survivor count not shown]
- T/C (dose: 360.0 mg/kg/injection, schedule: Q01DX Z (im), vehicle: saline): 97 % of control [survivor count not shown]
- T/C (dose: 360.0 mg/kg/injection, schedule: Q01DX Z (sc), vehicle: saline): 91 % of control [survivor count not shown]
- T/C (dose: 400.0 mg/kg/injection, schedule: Q01DX Z (oral), vehicle: saline): 103 % of control [survivor count not shown]
- T/C (dose: 500.0 mg/kg/injection, schedule: Q01DX001 (ip), vehicle: saline): 103 % of control [survivor count not shown]
- T/C (dose: 500.0 mg/kg/injection, schedule: Q01DX Z (im), vehicle: saline): 95 % of control [survivor count not shown]
- T/C (dose: 1000.0 mg/kg/injection, schedule: Q01DX001 (ip), vehicle: saline): 86 % of control [survivor count not shown]
